This test deals with NPC1 human fibroblast GM03123 cells. The experiment in a line: Filipin microscopy assay of free cholesterol in lysosomal storage organelles (LSO ratio). The class given is cell-based. The following applies: 48 h, read-out: EC50 for correcting the NPC1 phenotype.

SMILES strings stand for the structures. pEC50: −log10 of the molar value.

In general, pEC50 refers to −log10 of the EC50, conventionally taken in molar units. In the case of `O=C(CCCCCCC(=O)Nc1ccccc1)NO` [SAHA, vorinostat], the pEC50 was approximately 6.00.

These data come from patent US9333222B2, “Histone deacetylase inhibitors as therapeutic agents for Niemann-Pick type C disease” (University of Notre Dame du Lac, priority 2009, dated 2016).
